Measurements taken from US7135170B2 (ZymoGenetics, Inc., priority 2002, dated 2006).
Some results were stated once for a whole list of compounds, not compound by compound.

B1: IL-28A: human IL-28A polypeptide, previous designation zcyto20 (SEQ ID NOS: 2, 18, 36) (protein, listed as Homo sapiens)
chain: MKLDMTGDCTPVLVLMAAVLTVTGAVPVARLHGALPDARGCHIAQFKSLSPQELQAFKRAKDALEESLLLKDCRCHSRLFPRTWDLRQLQVRERPMALEAELALTLKVLEATADTDPALVDVLDQPLHTLHHILSQFRACIQPQPTAGPRTRGRLHHWLYRLQEAPKKESPGCLEASVTFNLFRLLTRDLNCVASGDLCV
modifications: SIGNAL (1)...(25)
B2: IL-29: human IL-29 polypeptide, previous designation zcyto21 (SEQ ID NOS: 4, 20, 38) (protein, listed as Homo sapiens)
chain: MAAAWTVVLVTLVLGLAVAGPVPTSKPTTTGKGCHIGRFKSLSPQELASFKKARDALEESLKLKNWSCSSPVFPGNWDLRLLQVRERPVALEAELALTLKVLEAAAGPALEDVLDQPLHTLHHILSQLQACIQPQPTAGPRPRGRLHHWLHRLQEAPKKESAGCLEASVTFNLFRLLTRDLKYVADGNLCLRTSTHPEST
modifications: SIGNAL (1)...(19)

Columns and labels:
[1] = test system: HBV; test: HBV replication in WT10 cells (TaqMan PCR extracellular HBV DNA); assay type: cell-based, hepatitis B virus
[2] = test system: HHV-8; test: HHV-8 replication in BCBL-1 cells (TaqMan PCR, CellTiter96); assay type: cell-based, Human Herpesvirus-8; details: BCBL-1 cell numbers/viability
[3] = test system: HSV-2; test: HSV-2 cytopathic effect inhibition in Vero cells; assay type: cell-based, Herpes Simplex Virus-2; details: HSV-2, Vero cells
Method: The Vero cells are propagated in Dulbecco's modified essential medium (DMEM) containing phenol red with 10% horse serum, 1% glutamine and 1% penicillin-streptomycin, while the CPE inhibition assays are performed in DMEM without phenol red with 2% FBS, 1% glutamine and 1% Pen-Strep. On the day preceding the assays, cells were trypsinized (1% trypsin-EDTA), washed, counted and plated out at 10^4 cells/well in a 96-well flat-bottom BioCoat® plates (Fisher Scientific, Pittsburgh, Pa.) in a volume of 100 μl/well. The next morning, the medium was removed and a pre-titered aliquot of virus was added to the cells. The amount of virus used is the maximum dilution that would yield complete cell killing (>80% ) at the time of maximal CPE development. Cell viability is determined using a CellTiter 96® reagent (Promega) according to the manufacturer's protocol, using a Vmax plate reader (Molecular Devices, Sunnyvale, Calif.). Compounds are tested at six concentrations each, diluted in assay medium in a half-log series. Acyclovir was used as a positive control. Compounds are added at the time of viral infection. The average background and drug color-corrected data for percent CPE reduction and percent cell viability at each concentration are determined relative to controls and the IC50 calculated relative to the TC50.

Molecule | IC50, HepB viral replication [1] [µg/mL] | TC50 [2] [µg/mL] | IC50, inhibition of cell death [3] [µg/mL]
B1 | < 0.032 | > 10 | > 10
B2 | < 0.032 | > 10 | > 10
